Primary screen of a compound library

The values are deposited in ChEMBL (CHEMBL3988442, “University of Dundee, Small-Polar-MMV Screening Library” (2021)).

The filed quantity is “Percent Effect” (%). How 0% and 100% were set is not recorded. Most values in the screen are low, and negative values occur. Compounds were drawn at random from those tested, without regard to their results. Two or more numbers in one place are separate tests of the same structure; such repeats can differ widely.

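Viability assay of Plasmodium falciparum sporozoites; the read-out is not stated. The concentration is filed as 10 mM, unlikely as a test dose, so the dose is not known. Higher reads as lower viability (inferred: compounds with an IC50 in retests scored well above the rest). Strong results were mostly tested again. Of about 34,000 compounds tested this way, about 280 (0.84%) reached 50% or more in at least one test.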

CCCN(CCC)C(=O)c1sc(C)nc1C read -10.99%.
CC(CNC(=O)N1CCSCC1)Cc1cccs1 (centres unmarked) read -20.97%.
CCOc1ncccc1CNC(=O)Nc1ccc(N(C)C)nc1 read 8.356%.
CO[C@@H]1CCN(Cc2nccs2)C[C@@H]1Cc1cccc(C)c1.O=C(O)C(F)(F)F read 5.387%.
CC(C)N1CCN(C(=O)C(C)n2cncn2)CC1 (centres unmarked) read 3.015%.
CC(Cn1cccn1)NC(=O)NCCc1cnn(C)c1 (centres unmarked) read 3.865%.
CNc1cncc(C2CCCN2Cc2ccnc(C)n2)n1 (centres unmarked) read 5.021%.
Cc1ccc(C(=O)N2CCC3(CC2)c2ccccc2[C@@H](N)[C@@H]3O)c(=O)[nH]1 read -5.857%.
O=C(CN1CCS(=O)(=O)CC1)Nc1ccc(N2CCCC2)nc1 read 1.665% & -28.08% & -29.88%.
CCOCCN1CCCC(c2cc(C(N)=O)[nH]n2)C1 (centres unmarked) read -11.27%.
Fc1cnc(N2CCCC3(CCN(Cc4cccs4)C3)C2)nc1.O=C(O)C(F)(F)F.O=C(O)C(F)(F)F (centres unmarked) read -12.96%.
CS(=O)(=O)NCC1CCCN(C(=O)Nc2cccnc2N2CCCC2)C1 (centres unmarked) read -2.593%.
CN(C)[C@@H]1CCN(C(=O)Cc2cccs2)[C@H]1Cc1ccncc1.O=C(O)C(F)(F)F.O=C(O)C(F)(F)F read -5.069%.
CN(C)C(=O)CN1CCOCC2(C1)CN(c1ncccn1)CCO2.O=C(O)C(F)(F)F (centres unmarked) read 12.96%.
O=S1(=O)NC(c2ccnc(N3CCCCC3)n2)=Nc2ccccc21 read 10.59%.
O=C(O)C(F)(F)F.O=C(O)C(F)(F)F.O=C(O)C(F)(F)F.[H][C@@]12OCCN(Cc3cccnc3)[C@@]1([H])CC[C@H]2OCc1csc(C)n1 read -28.09%.
O=C(O)C(F)(F)F.O=C(O)C(F)(F)F.c1cncc(C2COC3(CCN(Cc4ccsc4)CC3)C2)c1 (centres unmarked) read 3.947%.
CCCOC(=O)c1ccc(-c2ccc(/C=C3\C(=O)NC(=N)N3C)o2)cc1 read -2.089%.
Cc1cc(NC(=O)CN2CCCC2Cn2nc(C)nc2C)on1 (centres unmarked) read -8.707%.
O=S(=O)(N1CCOCC1)N1CCCC(c2ccccn2)C1 (centres unmarked) read 5.374%.
Fc1ccccc1Cc1noc(CN2CCCC(CN3CCCC3)C2)n1 (centres unmarked) read 12.16%.
O=C(c1sccc1C1CC1)N1CCN(Cc2cscn2)CC1 read 10.37%.
CCN(CC)CCNC(=O)CCc1c(C)nn(-c2ccccc2Br)c1C read -26.41%.
O=C(Cn1ccc2cc(Br)ccc21)NCc1ccc(C(=O)O)cc1 read -18.26%.
O=C(c1ccco1)N1CC[C@@H](N2CCOCC2)[C@@H]1Cc1ccccc1 read 5.99%.
Cc1ccc(C(=O)N2CCN(CCc3cccs3)CC2)c(=O)[nH]1 read 0.6441%.
CCCc1noc(CN2CCN(CCO)CC2)n1 read 3.983%.
Cc1ccccc1NC(=O)N1CCN(Cc2noc(C3CC3)n2)CC1 read -4.576%.
COc1ccc(NC(=O)NC(C)Cc2ccco2)cn1 (centres unmarked) read -1.11%.
Cc1cccc(CN2CCCC3(CCC(=O)N3CCN(C)C)CC2)n1.O=C(O)C(F)(F)F.O=C(O)C(F)(F)F (centres unmarked) read 10.47%.
[H][C@@]12CCN(S(C)(=O)=O)C[C@@]1([H])O[C@H](c1ccnc(C)n1)C2 read -14.99%.
COc1ccccc1OCc1cc(C(=O)N2CC=CC2C(C)C)n[nH]1 (centres unmarked) read -4.255%.
COCC1COCCC12CCN(C(=O)CCc1ccccc1)CC2 (centres unmarked) read -13.08%.
Cn1cc(C2COC3(CCN(C(=O)c4ccn(C)n4)CC3)C2)cn1 (centres unmarked) read 0.7732%.
Cc1cccc(OCCNC(=O)CN2CCCC2c2noc(C)n2)c1 (centres unmarked) read 4.636%.
Cc1nc(C)n(CC2CN(Cc3nc4ccccc4n3C)CCO2)n1 (centres unmarked) read -11.76%.